Some of the results follow.
Experiments:
Experiment in all cases: log2 fold change, soluble protein after heating vs DMSO (PISA); higher = thermal stabilisation; K562 lysate, 10 uM; active = over 0.2 and 3.5 SD of the protein, either way, in both replicates (recomputed)
[1] = compound: NCC(=O)Nc1ccc(-n2nc(C(F)(F)F)cc2-c2ccc3c(ccc4ccccc43)c2)cc1
Procedure, shortened: (§1)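 Pellets of K562 cells were dounce-homogenised in PBS pH 7.4 with 1 mM MgCl2, and the crude extract was held at 1 mg/mL protein for a 30 min treatment with 10 μM compound. Aliquots were heated for 3 min over 48°C-58°C and pooled before NP-40 was added to 0.5% at 4°C. The supernatant from 21,000xg for 90 min was quantified by TMTpro 16plex LC-MS/MS with channel sums equalised. Values are reported from duplicates as log-two fold change in thermal stability relative to solvent controls.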

By UniProt entry, the sequences of proteins in these tests, tags left out. Where a name states a change or a piece, a line headed by the entry shows the natural chain unless it says otherwise.
UniProt P23919: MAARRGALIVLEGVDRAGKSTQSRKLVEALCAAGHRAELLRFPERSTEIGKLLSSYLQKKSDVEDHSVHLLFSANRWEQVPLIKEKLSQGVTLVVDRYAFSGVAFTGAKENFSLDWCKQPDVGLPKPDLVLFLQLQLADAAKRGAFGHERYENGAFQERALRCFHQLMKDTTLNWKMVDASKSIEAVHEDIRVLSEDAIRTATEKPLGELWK
UniProt Q13409, whole entry, looked up: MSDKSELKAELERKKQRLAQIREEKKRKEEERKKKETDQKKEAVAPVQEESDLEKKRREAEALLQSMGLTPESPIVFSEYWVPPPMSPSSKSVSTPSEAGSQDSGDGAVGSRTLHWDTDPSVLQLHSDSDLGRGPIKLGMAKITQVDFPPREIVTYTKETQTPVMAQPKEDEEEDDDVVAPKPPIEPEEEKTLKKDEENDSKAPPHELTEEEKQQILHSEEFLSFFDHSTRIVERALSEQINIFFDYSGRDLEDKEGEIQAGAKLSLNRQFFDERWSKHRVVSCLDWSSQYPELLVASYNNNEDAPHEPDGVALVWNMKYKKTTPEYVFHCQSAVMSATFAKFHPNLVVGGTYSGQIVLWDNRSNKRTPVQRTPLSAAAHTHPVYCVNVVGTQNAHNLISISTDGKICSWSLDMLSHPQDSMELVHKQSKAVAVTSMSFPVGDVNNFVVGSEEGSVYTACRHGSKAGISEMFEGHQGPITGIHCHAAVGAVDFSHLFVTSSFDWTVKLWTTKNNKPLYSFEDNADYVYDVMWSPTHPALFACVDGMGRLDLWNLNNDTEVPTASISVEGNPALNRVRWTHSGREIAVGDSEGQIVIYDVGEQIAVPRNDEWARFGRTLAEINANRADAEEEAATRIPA
UniProt Q9C005, whole entry, looked up: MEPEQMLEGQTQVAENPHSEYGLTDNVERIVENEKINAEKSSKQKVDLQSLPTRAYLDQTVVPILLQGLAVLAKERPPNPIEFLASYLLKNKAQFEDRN
UniProt Q96EV8: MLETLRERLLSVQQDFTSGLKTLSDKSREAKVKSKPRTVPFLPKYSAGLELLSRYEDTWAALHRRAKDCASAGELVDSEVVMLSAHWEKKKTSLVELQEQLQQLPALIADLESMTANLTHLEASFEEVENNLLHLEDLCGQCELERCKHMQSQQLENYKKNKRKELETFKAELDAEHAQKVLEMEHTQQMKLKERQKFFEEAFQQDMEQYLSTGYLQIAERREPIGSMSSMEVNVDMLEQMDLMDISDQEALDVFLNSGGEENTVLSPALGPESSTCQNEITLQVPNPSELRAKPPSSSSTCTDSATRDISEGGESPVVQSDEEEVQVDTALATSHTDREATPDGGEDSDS
UniProt Q92611: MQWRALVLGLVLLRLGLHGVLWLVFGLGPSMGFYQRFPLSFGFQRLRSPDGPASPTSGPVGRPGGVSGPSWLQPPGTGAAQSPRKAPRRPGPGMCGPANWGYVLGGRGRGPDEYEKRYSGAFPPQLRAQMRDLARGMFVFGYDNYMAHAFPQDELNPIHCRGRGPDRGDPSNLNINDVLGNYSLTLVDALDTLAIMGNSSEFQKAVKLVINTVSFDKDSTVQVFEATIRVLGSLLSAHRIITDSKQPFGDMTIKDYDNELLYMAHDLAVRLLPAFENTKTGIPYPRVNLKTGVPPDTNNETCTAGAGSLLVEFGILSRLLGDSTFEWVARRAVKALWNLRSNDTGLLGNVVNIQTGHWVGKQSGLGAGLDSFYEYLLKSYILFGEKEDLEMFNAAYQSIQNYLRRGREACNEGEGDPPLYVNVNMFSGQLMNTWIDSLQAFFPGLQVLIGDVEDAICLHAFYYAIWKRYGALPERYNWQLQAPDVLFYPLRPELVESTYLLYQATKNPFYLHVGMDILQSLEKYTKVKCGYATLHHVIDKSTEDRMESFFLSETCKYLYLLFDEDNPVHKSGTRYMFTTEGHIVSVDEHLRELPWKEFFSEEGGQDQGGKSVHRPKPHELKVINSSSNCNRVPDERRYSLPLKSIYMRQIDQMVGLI
UniProt Q86TI2: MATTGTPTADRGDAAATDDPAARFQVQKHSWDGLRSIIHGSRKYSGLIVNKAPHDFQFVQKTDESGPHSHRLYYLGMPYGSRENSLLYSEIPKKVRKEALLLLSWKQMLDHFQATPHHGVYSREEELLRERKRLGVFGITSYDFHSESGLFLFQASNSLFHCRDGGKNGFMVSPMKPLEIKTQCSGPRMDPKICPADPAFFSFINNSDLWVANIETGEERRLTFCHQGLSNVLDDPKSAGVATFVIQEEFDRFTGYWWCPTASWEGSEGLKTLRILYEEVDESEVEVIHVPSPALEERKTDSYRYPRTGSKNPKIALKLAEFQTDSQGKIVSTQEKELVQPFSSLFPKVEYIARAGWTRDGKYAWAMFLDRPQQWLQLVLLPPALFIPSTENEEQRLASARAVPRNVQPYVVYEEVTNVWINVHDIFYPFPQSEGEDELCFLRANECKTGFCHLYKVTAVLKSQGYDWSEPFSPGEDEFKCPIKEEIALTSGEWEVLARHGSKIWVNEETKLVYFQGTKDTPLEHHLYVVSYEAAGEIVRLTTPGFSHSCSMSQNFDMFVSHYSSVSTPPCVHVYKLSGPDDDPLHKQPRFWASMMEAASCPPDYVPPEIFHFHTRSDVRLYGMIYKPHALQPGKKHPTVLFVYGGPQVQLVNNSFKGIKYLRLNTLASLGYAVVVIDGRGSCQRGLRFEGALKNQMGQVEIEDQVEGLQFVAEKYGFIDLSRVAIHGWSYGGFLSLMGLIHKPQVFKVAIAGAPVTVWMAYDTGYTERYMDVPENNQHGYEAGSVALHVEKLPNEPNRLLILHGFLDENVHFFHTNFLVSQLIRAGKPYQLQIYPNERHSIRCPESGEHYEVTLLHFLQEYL
UniProt P60981: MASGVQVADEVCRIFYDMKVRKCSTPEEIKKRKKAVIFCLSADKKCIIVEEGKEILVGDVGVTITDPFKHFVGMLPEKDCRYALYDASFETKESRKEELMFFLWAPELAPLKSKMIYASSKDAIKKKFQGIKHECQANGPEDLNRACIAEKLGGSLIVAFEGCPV
UniProt Q6ZPD9: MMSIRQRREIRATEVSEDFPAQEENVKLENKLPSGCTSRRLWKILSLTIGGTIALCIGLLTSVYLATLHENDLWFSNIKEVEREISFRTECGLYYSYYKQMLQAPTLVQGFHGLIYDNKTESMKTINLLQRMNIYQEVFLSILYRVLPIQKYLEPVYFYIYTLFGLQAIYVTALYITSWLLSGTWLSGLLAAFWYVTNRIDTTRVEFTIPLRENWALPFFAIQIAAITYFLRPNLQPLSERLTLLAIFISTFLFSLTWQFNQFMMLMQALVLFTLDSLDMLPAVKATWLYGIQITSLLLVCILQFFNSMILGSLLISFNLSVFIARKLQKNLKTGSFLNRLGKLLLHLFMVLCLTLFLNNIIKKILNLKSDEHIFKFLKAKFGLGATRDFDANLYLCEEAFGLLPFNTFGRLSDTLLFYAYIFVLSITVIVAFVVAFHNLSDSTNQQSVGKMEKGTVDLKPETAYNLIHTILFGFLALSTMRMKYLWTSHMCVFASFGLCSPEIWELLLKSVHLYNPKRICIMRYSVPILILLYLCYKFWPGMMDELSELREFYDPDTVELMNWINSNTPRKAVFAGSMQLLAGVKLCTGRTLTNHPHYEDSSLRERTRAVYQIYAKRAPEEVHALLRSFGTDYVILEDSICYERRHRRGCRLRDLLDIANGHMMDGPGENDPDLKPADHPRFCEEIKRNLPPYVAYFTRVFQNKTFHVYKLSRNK
UniProt Q56P03: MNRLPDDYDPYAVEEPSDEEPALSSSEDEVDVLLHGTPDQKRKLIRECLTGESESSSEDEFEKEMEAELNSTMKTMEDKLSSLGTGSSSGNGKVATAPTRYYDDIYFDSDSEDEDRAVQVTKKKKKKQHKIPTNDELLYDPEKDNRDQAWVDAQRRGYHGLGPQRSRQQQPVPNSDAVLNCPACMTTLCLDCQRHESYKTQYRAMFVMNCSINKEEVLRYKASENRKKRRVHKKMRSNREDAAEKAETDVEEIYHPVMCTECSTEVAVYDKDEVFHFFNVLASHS
UniProt P51452: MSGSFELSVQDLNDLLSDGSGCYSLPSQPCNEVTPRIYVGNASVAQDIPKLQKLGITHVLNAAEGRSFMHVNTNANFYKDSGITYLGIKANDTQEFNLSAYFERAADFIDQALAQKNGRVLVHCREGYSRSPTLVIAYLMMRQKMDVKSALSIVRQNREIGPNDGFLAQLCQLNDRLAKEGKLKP
UniProt Q8NDI1: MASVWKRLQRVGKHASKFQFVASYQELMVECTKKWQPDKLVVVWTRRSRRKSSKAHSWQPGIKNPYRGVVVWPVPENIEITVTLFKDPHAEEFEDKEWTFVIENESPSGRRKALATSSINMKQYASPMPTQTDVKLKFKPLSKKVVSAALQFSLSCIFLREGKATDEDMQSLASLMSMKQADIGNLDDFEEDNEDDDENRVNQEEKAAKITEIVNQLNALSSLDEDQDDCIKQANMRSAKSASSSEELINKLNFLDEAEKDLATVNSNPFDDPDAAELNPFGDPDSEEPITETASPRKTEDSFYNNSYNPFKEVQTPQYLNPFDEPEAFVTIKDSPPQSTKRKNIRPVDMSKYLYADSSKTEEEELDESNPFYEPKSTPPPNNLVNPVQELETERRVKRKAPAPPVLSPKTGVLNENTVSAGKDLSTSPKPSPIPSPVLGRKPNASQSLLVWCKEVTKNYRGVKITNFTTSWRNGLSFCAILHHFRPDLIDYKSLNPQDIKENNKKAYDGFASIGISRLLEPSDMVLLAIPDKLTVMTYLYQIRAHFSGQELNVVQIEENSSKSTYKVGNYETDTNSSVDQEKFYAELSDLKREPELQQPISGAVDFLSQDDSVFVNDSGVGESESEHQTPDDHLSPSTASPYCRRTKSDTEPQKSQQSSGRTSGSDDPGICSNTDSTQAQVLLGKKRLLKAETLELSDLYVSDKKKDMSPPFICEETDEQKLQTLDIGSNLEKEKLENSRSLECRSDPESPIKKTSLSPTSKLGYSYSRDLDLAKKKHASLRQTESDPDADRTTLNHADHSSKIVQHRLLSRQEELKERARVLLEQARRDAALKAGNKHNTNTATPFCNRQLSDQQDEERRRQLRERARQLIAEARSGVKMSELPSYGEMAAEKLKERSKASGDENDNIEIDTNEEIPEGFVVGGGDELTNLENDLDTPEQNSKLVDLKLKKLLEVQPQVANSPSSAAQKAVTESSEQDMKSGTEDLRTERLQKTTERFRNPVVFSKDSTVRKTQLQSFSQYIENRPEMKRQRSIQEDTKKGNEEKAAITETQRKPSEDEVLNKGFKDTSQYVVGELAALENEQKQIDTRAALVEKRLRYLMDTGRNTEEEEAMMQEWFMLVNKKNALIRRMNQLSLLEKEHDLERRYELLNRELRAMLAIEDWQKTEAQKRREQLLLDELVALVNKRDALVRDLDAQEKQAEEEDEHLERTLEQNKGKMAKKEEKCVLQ
UniProt P29692: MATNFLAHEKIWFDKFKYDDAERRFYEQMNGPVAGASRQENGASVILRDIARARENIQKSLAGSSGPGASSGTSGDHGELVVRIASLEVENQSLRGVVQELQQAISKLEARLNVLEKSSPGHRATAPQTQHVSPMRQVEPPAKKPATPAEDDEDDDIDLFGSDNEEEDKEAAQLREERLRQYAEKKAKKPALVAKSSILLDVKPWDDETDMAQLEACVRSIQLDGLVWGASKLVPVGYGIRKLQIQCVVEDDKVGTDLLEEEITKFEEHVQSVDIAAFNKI
UniProt O60762: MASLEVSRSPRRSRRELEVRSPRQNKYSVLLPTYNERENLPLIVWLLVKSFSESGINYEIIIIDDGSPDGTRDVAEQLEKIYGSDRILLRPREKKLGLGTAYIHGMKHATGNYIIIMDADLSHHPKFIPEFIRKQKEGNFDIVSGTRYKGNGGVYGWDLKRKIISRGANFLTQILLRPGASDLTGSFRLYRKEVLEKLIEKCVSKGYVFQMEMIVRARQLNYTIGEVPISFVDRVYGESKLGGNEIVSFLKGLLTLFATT
UniProt O75071: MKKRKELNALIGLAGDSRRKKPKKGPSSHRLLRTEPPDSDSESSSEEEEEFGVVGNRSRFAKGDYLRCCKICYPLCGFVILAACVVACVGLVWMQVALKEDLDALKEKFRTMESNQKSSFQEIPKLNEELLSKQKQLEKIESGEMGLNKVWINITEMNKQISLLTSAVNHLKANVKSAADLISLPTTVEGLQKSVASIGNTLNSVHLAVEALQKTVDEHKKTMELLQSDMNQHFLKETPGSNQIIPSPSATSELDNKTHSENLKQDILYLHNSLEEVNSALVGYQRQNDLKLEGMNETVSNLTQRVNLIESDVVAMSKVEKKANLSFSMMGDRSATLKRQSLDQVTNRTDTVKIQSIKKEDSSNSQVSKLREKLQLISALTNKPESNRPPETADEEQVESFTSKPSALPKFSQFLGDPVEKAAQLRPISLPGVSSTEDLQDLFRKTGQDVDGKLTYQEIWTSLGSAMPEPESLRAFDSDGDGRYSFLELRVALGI

vorinostat = compound: O=C(CCCCCCC(=O)Nc1ccccc1)NO [vorinostat]
Procedure, shortened: as §1

silmitasertib = compound: O=C(O)c1ccc2c(c1)nc(Nc1cccc(Cl)c1)c1ccncc12 [silmitasertib]
Procedure, shortened: as §1

[2] = compound: O=C1NC(=O)C(c2cnc3ccccn23)=C1c1cn2c3c(cc(F)cc13)CN(C(=O)N1CCCCC1)CC2
Procedure, shortened: as §1

entospletinib = compound: c1cn2cc(-c3ccc4cn[nH]c4c3)nc(Nc3ccc(N4CCOCC4)cc3)c2n1 [entospletinib]
Procedure, shortened: as §1

Measured: log2 fold change

DTYMK (UniProt P23919)
inactive: [1] -0.022 | silmitasertib 0.071 | [2] -0.023 | entospletinib 0.061
active: vorinostat -0.294

DYNC1I2 isoform 5 (UniProt Q13409)
inactive: [1] 0.009 | vorinostat 0.126 | silmitasertib 0.03 | [2] -0.005 | entospletinib -0.007

DUSP9 (UniProt Q99956)
inactive: [1] -0.046 | vorinostat -0.328 | silmitasertib 0.045 | [2] -0.019 | entospletinib -0.059

DPY30 (UniProt Q9C005)
inactive: [1] 0.111 | vorinostat 0.133 | silmitasertib -0.046 | [2] 0.071 | entospletinib -0.068

DTNBP1 (UniProt Q96EV8)
inactive: [1] -0.018 | vorinostat 0.015 | silmitasertib 0 | [2] 0.016 | entospletinib -0.04

EDEM1 (UniProt Q92611)
inactive: [1] 0.004 | vorinostat 0.041 | silmitasertib -0.016 | [2] 0.018 | entospletinib 0.063

EEF1AKMT4 (UniProt P0DPD7)
active: vorinostat -0.312
inactive: [1] 0.053 | silmitasertib 0.029 | [2] 0.035 | entospletinib 0.012

ECHDC1 (UniProt Q9NTX5)
inactive: [1] -0.003 | vorinostat -0.02 | silmitasertib 0.006 | [2] 0.004 | entospletinib -0.063

DPP9 isoform 2 (UniProt Q86TI2)
inactive: [1] 0.004 | vorinostat -0.09 | silmitasertib -0.002 | [2] 0 | entospletinib 0.013

ECI1 (UniProt P42126)
inactive: [1] -0.039 | vorinostat 0.123 | silmitasertib -0.002 | [2] -0.013 | entospletinib 0

DSTN (UniProt P60981)
inactive: [1] -0.012 | silmitasertib 0.014 | [2] -0.031 | entospletinib -0.021
active: vorinostat -0.34

DPY19L3 (UniProt Q6ZPD9)
inactive: [1] -0.085 | vorinostat 0.219 | silmitasertib 0.108 | [2] 0.035 | entospletinib -0.024

EAPP (UniProt Q56P03)
inactive: [1] -0.083 | vorinostat 0.029 | silmitasertib -0.086 | [2] 0.024 | entospletinib 0.024

Reprinted from the entries so far (7 entries):
DTNBP1 (UniProt Q96EV8)
inactive: [1] -0.018 | vorinostat 0.015 | silmitasertib 0 | [2] 0.016 | entospletinib -0.04

EDEM1 (UniProt Q92611)
inactive: [1] 0.004 | vorinostat 0.041 | silmitasertib -0.016 | [2] 0.018 | entospletinib 0.063

EEF1AKMT4 (UniProt P0DPD7)
active: vorinostat -0.312
inactive: [1] 0.053 | silmitasertib 0.029 | [2] 0.035 | entospletinib 0.012

ECHDC1 (UniProt Q9NTX5)
inactive: [1] -0.003 | vorinostat -0.02 | silmitasertib 0.006 | [2] 0.004 | entospletinib -0.063

DPP9 isoform 2 (UniProt Q86TI2)
inactive: [1] 0.004 | vorinostat -0.09 | silmitasertib -0.002 | [2] 0 | entospletinib 0.013

ECI1 (UniProt P42126)
inactive: [1] -0.039 | vorinostat 0.123 | silmitasertib -0.002 | [2] -0.013 | entospletinib 0

DSTN (UniProt P60981)
inactive: [1] -0.012 | silmitasertib 0.014 | [2] -0.031 | entospletinib -0.021
active: vorinostat -0.34

Next entries follow.

ECHS1 (UniProt P30084)
inactive: [1] -0.011 | vorinostat -0.055 | silmitasertib 0.036 | [2] -0.018 | entospletinib 0.025

DUSP3 (UniProt P51452)
inactive: [1] 0.018 | vorinostat 0.022 | silmitasertib -0.026 | [2] 0.04 | entospletinib 0.005

EHBP1 isoform 2 (UniProt Q8NDI1)
inactive: [1] -0.046 | vorinostat -0.012 | silmitasertib 0.02 | [2] -0.005 | entospletinib -0.02

DST (UniProt Q03001)
inactive: [1] 0.262 | vorinostat -0.035 | silmitasertib -0.02 | [2] 0.01 | entospletinib -0.03

DYNC1H1 (UniProt Q14204)
inactive: [1] 0.003 | vorinostat -0.083 | silmitasertib 0.022 | [2] 0.004 | entospletinib 0.01

DPH7 (UniProt Q9BTV6)
inactive: [1] 0.036 | vorinostat 0.059 | silmitasertib 0.027 | [2] -0.029 | entospletinib 0.003

EEF1D isoform 2 (UniProt P29692)
inactive: [1] 0.039 | vorinostat 0.11 | silmitasertib -0.01 | [2] -0.013 | entospletinib -0.007

DPM1 (UniProt O60762)
inactive: [1] 0.05 | vorinostat -0.01 | silmitasertib -0.016 | [2] -0.011 | entospletinib 0.02

DYRK1A (UniProt Q13627)
inactive: [1] 0.021 | vorinostat -0.253 | [2] 0.01 | entospletinib 0.005
active: silmitasertib 0.247

EFCAB14 (UniProt O75071)
active: vorinostat 0.327
inactive: [1] 0.039 | silmitasertib -0.054 | [2] 0.029 | entospletinib 0.013

DPY19L4 (UniProt Q7Z388)
inactive: [1] 0.067 | vorinostat -0.019 | silmitasertib -0.143 | [2] -0.019 | entospletinib 0.092

From the supplement of paper PMC10849652
